Data set [1] is described as follows: general procedure: Boc solid-phase peptide synthesis; 4-sulfamylbutyryl AM resin; HATU/DIEA. The note with it: whole synthesis.
The nature of data set [2]: general procedure: Boc solid-phase peptide synthesis; 4-sulfamylbutyryl AM resin (alkanesulfonamide safety-catch linker); HATU/DIEA. The note with it: whole synthesis.

Some peptides are written in HELM: one residue between dots, names in brackets for other building blocks, links after the first $.

The values that follow come from patent US8247533B2 (The United States of America, as represented by the …, priority 2007, dated 2012).

Turning to “cyclo{[(D-Leu-L-Leu)4-(D-Leu-L-Pro-Gly)]2-”, the isolated mass in data set [1] (scale 0.5 mmol) amounted to 245 mg. Further, the isolated yield in data set [2] (based on Fmoc-aminoacyl resin, scale of the general procedure 0.36 mmol) was 23%.

As for “HELM PEPTIDE1{V.[dP].G.V.[dV].V.[dV].V.[dV].V.[dV].V.[dP].G.V.[dV].V.[dV].V.[dV].V.[dV]}$PEPTIDE1,PEPTIDE1,1:R1-22:R2$$$V2.0 (SMILES CC(C)[C@@H]1NC(=O)CNC(=O)[C@H]2CCCN2C(=O)[C@H](C(C)C)NC(=O)[C@@H](C(C)C)NC(=O)[C@H](C(C)C)NC(=O)[C@@H](C(C)C)NC(=O)[C@H](C(C)C)NC(=O)[C@@H](C(C)C)NC(=O)[C@H](C(C)C)NC(=O)[C@@H](C(C)C)NC(=O)[C@H](C(C)C)NC(=O)CNC(=O)[C@H]2CCCN2C(=O)[C@H](C(C)C)NC(=O)[C@@H](C(C)C)NC(=O)[C@H](C(C)C)NC(=O)[C@@H](C(C)C)NC(=O)[C@H](C(C)C)NC(=O)[C@@H](C(C)C)NC(=O)[C@H](C(C)C)NC(=O)[C@@H](C(C)C)NC1=O)”, in data set [1] (scale 0.36 mmol), the crude mass is 431 mg. In data set [2], this substance registered an isolated mass of 170 mg. In addition, the “final purity (method not given)” value in data set [2] (1D 1H NMR, scale of the general procedure 0.36 mmol) is listed as “≧95%”. Moreover, the isolated yield in data set [2] (based on Fmoc-aminoacyl resin 2, scale of the general procedure 0.36 mmol) turned out to be 23%. In addition, the difficulty met result in data set [2] (scale of the general procedure 0.36 mmol) is given as “repeated chromatography on a C4, C8, or C18 column failed to completely remove the putative epimerized material”.
